Results deposited as PubChem BioAssay AID686938 (Drosophila RNAi Screening Center, 2013)

Test: 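Fly genes required for calcium entry once internal stores are emptied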 (primary screen)
System: Drosophila S2R+ cells
Reagents: long dsRNA against Drosophila genes, about 0.25 µg dsRNA per well, roughly 10,000 cells
Duration: 5 days of knock-down before the calcium assay
Conditions: thapsigargin (SERCA pump blocker) to empty calcium stores; entry signal taken 4 min after adding it
Measurement: 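Per-well fluo-4 fluorescence in two replicates, unnormalised, measured in resting cells and 4 min after store depletion by the SERCA blocker thapsigargin; ratio of the two present in few wells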
Reading the numbers: calcium entry signal: higher = stronger calcium signal after store depletion; entry to resting ratio: higher = more calcium entry relative to resting level; resting calcium signal: higher = higher resting calcium signal
Active means: 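Hit if the duplicate-averaged plate z-score for entry over resting signal is under −3; wells with weak total dye signal (Fmax z < −2) or more than 5 off-targets removed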
Calls: active = strongly reduced calcium entry; inactive = no strong reduction
In all, the deposit lists about 23,000 reagents; below is an unselected part of those with a known target gene and a result. Over the whole deposit, 75 (0.33%) are marked active. 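Raw plate signals without normalisation; calls rest on plate z-scores that were not deposited; ratio present for only 364 wells.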 Entries without a mark were called inactive. A plus sign joins genes that one reagent is predicted to hit. The record does not give: the dose of the treatment.

| gene knocked down | DRSC id | calcium entry signal, replicate 1 (fluorescence units) | calcium entry signal, replicate 2 (fluorescence units) | entry to resting ratio | resting calcium signal, replicate 1 (fluorescence units) | resting calcium signal, replicate 2 (fluorescence units) |
| --- | --- | --- | --- | --- | --- | --- |
| CG6893 | DRSC10742 | 3.78e7 | 4.73e7 | – | 1.87e7 | 1.62e7 |
| Uqcc1 + CG9948 | DRSC09690 | 3.27e7 | 4.89e7 | – | 1.54e7 | 1.97e7 |
| CG30177 | DRSC22680 | 2.31e7 | 3.05e7 | – | 1.24e7 | 1.29e7 |
| CG14984 | DRSC08442 | 3.85e7 | 4.99e7 | – | 1.93e7 | 2.15e7 |
| dati (datilografo) | DRSC17128 | 2.80e7 | 3.46e7 | – | 1.31e7 | 1.68e7 |
| dati (datilografo) | DRSC17140 | 4.15e7 | 6.03e7 | 1.9 | 2.18e7 | 2.32e7 |
| dati (datilografo) | DRSC17153 | 4.40e7 | 5.78e7 | 1.9 | 2.26e7 | 2.10e7 |
| CG17190 | DRSC15184 | 2.67e7 | 3.24e7 | – | 3.43e7 | 1.41e7 |
| azot (ahuizotl) | DRSC06051 | 3.04e7 | 2.11e7 | – | 1.51e7 | 1.15e7 |
| prel (preli-like) | DRSC07271 | 3.18e7 | 2.54e7 | – | 1.37e7 | 1.26e7 |
| CG3021 | DRSC18165 | 3.78e7 | 4.63e7 | 2.1 | 1.84e7 | 1.93e7 |
| CG3021 | DRSC18652 | 3.48e7 | 3.78e7 | 2.2 | 1.59e7 | 1.56e7 |
| Slimp (Seryl-tRNA synthetase-like insect mitochondrial protein) | DRSC13656 | 3.31e7 | 3.63e7 | – | 1.62e7 | 1.77e7 |
| CG43072 | DRSC11688 | 3.34e7 | 4.87e7 | – | 1.65e7 | 2.16e7 |
| CG18449 | DRSC06754 | 3.45e7 | 4.45e7 | – | 1.60e7 | 1.81e7 |
| CG17292 | DRSC02594 | 5.35e7 | – | – | 2.28e7 | – |
| CG43253 (retired record) | DRSC09529 | 4.81e7 | 4.95e7 | – | 2.11e7 | 2.38e7 |
| CG13033 | DRSC09913 | 4.72e7 | 6.55e7 | – | 2.18e7 | 2.55e7 |
| peb (pebbled) | DRSC18817 | 3.43e7 | 4.06e7 | – | 2.01e7 | 2.20e7 |
| peb (pebbled) | DRSC23057 | 3.73e7 | 3.68e7 | – | 2.09e7 | 1.61e7 |
| AANATL3 (Arylalkylamine N-acetyltransferase-like 3) | DRSC02089 | 3.41e7 | 4.15e7 | – | 1.79e7 | 1.89e7 |
| CG17959 | DRSC18142 | 6.42e7 | 6.27e7 | 2.1 | 3.04e7 | 2.74e7 |
| CG42380 + CG42379 + PIG-M + 1 more | DRSC03884 | 3.01e7 | 4.96e7 | – | 1.50e7 | 4.89e7 |
| CG42380 + CG42379 + PIG-M + 1 more | DRSC04580 | 2.70e7 | – | – | 1.44e7 | – |
| brv3 (brivido-3) | DRSC18657 | 4.83e7 | 4.67e7 | 2 | 2.40e7 | 1.94e7 |
| CG14309 | DRSC14788 | 3.58e7 | 4.41e7 | – | 6.66e7 | 2.09e7 |
| CG9171 | DRSC03152 | 4.91e7 | – | – | 2.28e7 | – |
| CG9171 | DRSC21813 | 3.30e7 | 3.04e7 | – | 1.94e7 | 1.42e7 |
| babos | DRSC03923 | 3.36e7 | 4.46e7 | – | 1.51e7 | 1.78e7 |
| babos | DRSC04397 | 3.66e7 | – | – | 1.85e7 | – |
| Or67a (Odorant receptor 67a) | DRSC11240 | 2.48e7 | 3.36e7 | – | 1.33e7 | 1.48e7 |

Sorted by “calcium entry signal, replicate 1 (fluorescence units)” (lowest first): some entries from above
| gene knocked down | DRSC id | calcium entry signal, replicate 1 (fluorescence units) | calcium entry signal, replicate 2 (fluorescence units) | entry to resting ratio | resting calcium signal, replicate 1 (fluorescence units) | resting calcium signal, replicate 2 (fluorescence units) |
| --- | --- | --- | --- | --- | --- | --- |
| CG30177 | DRSC22680 | 2.31e7 | 3.05e7 | – | 1.24e7 | 1.29e7 |
| dati (datilografo) | DRSC17128 | 2.80e7 | 3.46e7 | – | 1.31e7 | 1.68e7 |
| Uqcc1 + CG9948 | DRSC09690 | 3.27e7 | 4.89e7 | – | 1.54e7 | 1.97e7 |
| CG6893 | DRSC10742 | 3.78e7 | 4.73e7 | – | 1.87e7 | 1.62e7 |
| CG14984 | DRSC08442 | 3.85e7 | 4.99e7 | – | 1.93e7 | 2.15e7 |

Additional entries follow.
| gene knocked down | DRSC id | calcium entry signal, replicate 1 (fluorescence units) | calcium entry signal, replicate 2 (fluorescence units) | entry to resting ratio | resting calcium signal, replicate 1 (fluorescence units) | resting calcium signal, replicate 2 (fluorescence units) |
| --- | --- | --- | --- | --- | --- | --- |
| CG3277 | DRSC00588 | 2.91e7 | 2.71e7 | – | 1.44e7 | 1.42e7 |
| CG34386 | DRSC06467 | 4.06e7 | 3.60e7 | – | 1.94e7 | 1.83e7 |
| CG34386 | DRSC06468 | 3.93e7 | 3.54e7 | – | 1.70e7 | 1.70e7 |
| CG34386 | DRSC23234 | 3.83e7 | 3.28e7 | – | 2.02e7 | 1.52e7 |
| Pif1 (Pif1 DNA helicase) | DRSC00582 | 4.15e7 | – | – | 2.46e7 | – |
| CG16896 | DRSC04284 | 4.48e7 | – | – | 2.33e7 | – |
| CR33319 (pseudo) | DRSC01826 | 3.51e7 | 6.33e7 | – | 1.48e7 | 2.52e7 |
| LKRSDH (Lysine ketoglutarate reductase/saccharopine dehydrogenase) | DRSC03015 | 4.19e7 | – | – | 2.22e7 | – |
| AttB (Attacin-B) | DRSC06734 | 3.13e7 | 3.07e7 | – | 1.65e7 | 1.60e7 |
| CG31268 | DRSC13203 | 3.33e7 | 3.73e7 | – | 1.90e7 | 1.69e7 |
| CG15343 | DRSC18028 | 3.69e7 | 5.66e7 | – | 1.90e7 | 2.51e7 |
| CG3746 | DRSC04412 | 3.33e7 | 4.43e7 | – | 1.76e7 | 1.87e7 |
| Myo28B1 (Myosin 28B1) | DRSC03375 | 3.21e7 | 3.32e7 | – | 1.79e7 | 1.63e7 |
| CR15821 (pseudo) | DRSC08481 | 2.82e7 | 3.28e7 | – | 1.47e7 | 1.49e7 |
| CG4572 | DRSC15603 | 3.04e7 | 2.91e7 | – | 1.40e7 | 1.25e7 |
| prod (proliferation disrupter) | DRSC07667 | 2.56e7 | 1.79e7 | – | 1.20e7 | 1.00e7 |
| Uro (Urate oxidase) | DRSC03469 | 2.06e7 | 2.74e7 | – | 1.01e7 | 1.25e7 |
| Gr64f (Gustatory receptor 64f) | DRSC08447 | 4.76e7 | 5.00e7 | – | 2.27e7 | 2.21e7 |
| nkt (noktochor) | DRSC10144 | 3.25e7 | 5.07e7 | – | 1.69e7 | 2.05e7 |
| CG4497 | DRSC02754 | 3.85e7 | – | – | 2.22e7 | – |
| CG5810 | DRSC15880 | 4.29e7 | 3.92e7 | – | 6.44e7 | 1.90e7 |
| CG5810 | DRSC21921 | 3.62e7 | 4.83e7 | – | 1.78e7 | 2.45e7 |
| pip (pipe) | DRSC11382 | 2.38e7 | 4.56e7 | – | 1.21e7 | 1.85e7 |
| Vps20 (Vacuolar protein sorting 20) | DRSC04448 | 3.31e7 | 2.99e7 | – | 1.78e7 | 1.56e7 |
| Or47a (Odorant receptor 47a) | DRSC07491 | 2.64e7 | 3.35e7 | – | 1.35e7 | 1.39e7 |
| CG12679 | DRSC20493 | 5.77e7 | 4.58e7 | – | 2.64e7 | 1.80e7 |
| mRpL12 (mitochondrial ribosomal protein L12) | DRSC10467 | 5.37e7 | 3.28e7 | – | 3.42e7 | 1.37e7 |
